Assay: Cumulative in vitro dissolution of nifedipine and metoprolol (Example 2 tablet), USP dissolution apparatus No. 2, 100 rpm, pH 6.5 with 1% sodium dodecylsulphate
Type: physicochemical
Settings: pH 6.5, 1% sodium dodecylsulphate
Procedure: The in vitro dissolution of both nifedipine and metoprolol from the tablet was extended, see Table 2.
Cumulative in vitro dissolution of nifedipine and metroprolol in a
phosphate buffer of pH 6.5 with 1% sodium dodecylsulphate.
Method: USP dissolution apparatus No. 2, 100 rpm.

## COC(=O)C1=C(C)NC(C)=C(C(=O)OC)C1c1ccccc1[N+](=O)[O-] [nifedipine, 1,4-dihydro-2,6-dimethyl-4-(2-nitrophenyl)-3,5-pyridinecarboxylic acid dimethyl ester]
0 h
  Percent released over time (h): 0%
2 h
  Percent released over time (h): 12%
4 h
  Percent released over time (h): 26%
8 h
  Percent released over time (h): 44%
12 h
  Percent released over time (h): 72%
16 h
  Percent released over time (h): 90%
20 h
  Percent released over time (h): 98%

Source: US4942040A, “Pharmaceutical preparation and a process for its preparation” (priority 1987, dated 1990)
